# These are yes or no findings as the source states them, for the method shown. Some binding calls cover weakened binding; strength is not graded here.
# Target: cynomolgus monkey Nectin-4 protein (KACTUS, Cat. No. NEC-CM104) (cynomolgus monkey)
# Test: ELISA screening of hybridoma subclones
row,binding,Binder
1,binds,"Murine antibody 23-H4F3 (antibody, V domains shown) VH: QVQLQQSGPELVKPGASVRISCKASGYTFTSYYIHWVKQRPGQGLEWIGWIYPGNVNTKYNEKFKGKATLTADKSSSTAYMQLISLTSEDSAVYFCARGVYYFDFWGQGTTLTVSS VL: SIVMTQTPKFLLVSAGDRVTLTCKASQSVSNDVAWFQQKPGQSPKLLIYYALNRYTGVPDRFTGSGYGTDFTFTISTVQAEDLAVYFCQQDYSSPYTFGGGTKLEIK"
2,binds,"Murine antibody 32-A12C7 (antibody, V domains shown) VH: QVQLQQPGAELVMPGASVKMSCKASGYTFTDYWMHWVKQRPGQGLEWIGAIDTSDSYTSYNQKFKGKATLTVDESSSTAYMQLSSLTSEDSAVYYCARWGSTMITWGYGMDNWGQGTSVTVSS VL: DIQMTQTTSSLSASLGDRVTISCRASQDINNYLNWYQQKPDGTVKLLIYYTSRLHSGVPSRFSGSGSGTDYSLTISNLEQEDIATYFCQQGNTLPWTFGGGTKLEIK"
3,binds,"Murine antibody 6-B9B6 (antibody, V domains shown) VH: EVHLVESGGGLVQPGGSLKLSCAASGFTFSSYGMSWVRQTPDKRLELVATINNIGGSTFPPDSVKGRFTVSRDNAKNTLYLQMSSLKSEDTAMYYCARAYDYVPFAYWGQGTLVTVSA VL: DIQMTQSSSYLSVSLGGRVTITCKASDHINNWLAWYQQKPGNAPRLLISGATSLETGVPSRFSGSGSGKDYALSIASLQTEDVATYYCQQYWSTPFTFGSGTKLEIK"
